Data taken from the supplement of paper PMC6411743.
± gives the standard deviation of the averaged measurements. Only a part is listed here, and it is no random draw.

Assays:
Experiment in all cases: NP40-soluble protein abundance relative to vehicle (solubility fold change) (ratio); higher = more soluble protein in presence of ATP
[1] = molecular target: T1, UniProt Q5T0F9 and related entries
T1 sequence (whole entry): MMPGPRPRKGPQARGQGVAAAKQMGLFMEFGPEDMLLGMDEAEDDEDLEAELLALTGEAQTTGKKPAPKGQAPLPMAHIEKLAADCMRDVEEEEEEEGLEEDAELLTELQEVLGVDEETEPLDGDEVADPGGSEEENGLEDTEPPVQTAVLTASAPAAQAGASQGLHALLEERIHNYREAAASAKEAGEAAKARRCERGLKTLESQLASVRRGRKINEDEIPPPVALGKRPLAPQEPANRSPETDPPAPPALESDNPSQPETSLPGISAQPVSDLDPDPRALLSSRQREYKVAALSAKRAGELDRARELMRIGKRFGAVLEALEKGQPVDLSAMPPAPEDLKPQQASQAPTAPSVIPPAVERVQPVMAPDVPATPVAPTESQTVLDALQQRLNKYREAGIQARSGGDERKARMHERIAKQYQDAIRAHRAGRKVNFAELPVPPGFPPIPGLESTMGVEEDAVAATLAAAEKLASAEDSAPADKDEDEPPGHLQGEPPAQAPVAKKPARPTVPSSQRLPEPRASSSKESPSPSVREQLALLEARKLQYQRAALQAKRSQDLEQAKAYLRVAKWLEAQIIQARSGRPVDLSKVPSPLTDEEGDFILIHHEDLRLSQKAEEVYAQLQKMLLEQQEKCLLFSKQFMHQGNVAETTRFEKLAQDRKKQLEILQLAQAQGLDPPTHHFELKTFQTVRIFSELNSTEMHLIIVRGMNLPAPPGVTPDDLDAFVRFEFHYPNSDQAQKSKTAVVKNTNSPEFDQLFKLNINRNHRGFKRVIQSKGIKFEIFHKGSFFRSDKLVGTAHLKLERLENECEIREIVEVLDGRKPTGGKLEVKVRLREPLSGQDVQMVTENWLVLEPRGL
Outline: (§1)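 Jurkat crude lysate (Dounce-homogenised) was treated with eight concentrations from 0.1 to 10 mM for 10 min at room temperature, then 3 min at 37 °C. It was solubilised with 0.8% NP40 and benzonase (60 min, 4 °C) and ultracentrifuged, and the supernatant was TMT-labelled for LC-MS/MS. Intensities were vsn-normalised, and the value is the fold change against the NP40-processed vehicle per replicate, from three independent experiments.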

[2] = molecular target: T2, UniProt Q5VST6
T2 sequence (whole entry): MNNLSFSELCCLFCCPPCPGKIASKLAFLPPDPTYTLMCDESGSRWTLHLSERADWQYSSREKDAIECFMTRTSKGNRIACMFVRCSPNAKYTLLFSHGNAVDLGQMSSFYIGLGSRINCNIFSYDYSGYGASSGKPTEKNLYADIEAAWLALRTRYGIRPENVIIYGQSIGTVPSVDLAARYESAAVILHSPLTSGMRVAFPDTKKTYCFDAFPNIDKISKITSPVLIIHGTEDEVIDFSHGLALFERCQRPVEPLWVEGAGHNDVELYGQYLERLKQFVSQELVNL
Outline: as §1

[3] = molecular target: T3, UniProt Q5W0B1
T3 sequence (whole entry): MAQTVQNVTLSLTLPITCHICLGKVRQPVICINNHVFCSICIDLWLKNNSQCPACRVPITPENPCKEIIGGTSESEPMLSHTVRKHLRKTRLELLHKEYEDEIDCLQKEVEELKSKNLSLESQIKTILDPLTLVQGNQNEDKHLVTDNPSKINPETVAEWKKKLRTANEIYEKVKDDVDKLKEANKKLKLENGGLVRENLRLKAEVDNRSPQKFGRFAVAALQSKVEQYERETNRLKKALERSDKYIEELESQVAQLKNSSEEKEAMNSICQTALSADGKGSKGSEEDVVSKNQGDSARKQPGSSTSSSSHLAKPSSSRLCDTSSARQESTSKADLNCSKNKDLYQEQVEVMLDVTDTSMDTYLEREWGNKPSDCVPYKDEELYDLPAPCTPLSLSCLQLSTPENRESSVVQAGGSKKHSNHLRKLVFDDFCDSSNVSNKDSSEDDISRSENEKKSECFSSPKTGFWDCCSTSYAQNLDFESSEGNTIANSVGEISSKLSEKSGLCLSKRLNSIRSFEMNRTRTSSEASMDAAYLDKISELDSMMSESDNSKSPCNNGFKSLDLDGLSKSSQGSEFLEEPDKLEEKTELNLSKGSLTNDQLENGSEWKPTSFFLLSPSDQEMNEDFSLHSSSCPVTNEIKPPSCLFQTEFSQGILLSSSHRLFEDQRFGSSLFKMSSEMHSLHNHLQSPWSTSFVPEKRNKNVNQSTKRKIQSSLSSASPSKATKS
Outline: as §1

[4] = molecular target: T4, UniProt Q68CQ4
T4 sequence (whole entry): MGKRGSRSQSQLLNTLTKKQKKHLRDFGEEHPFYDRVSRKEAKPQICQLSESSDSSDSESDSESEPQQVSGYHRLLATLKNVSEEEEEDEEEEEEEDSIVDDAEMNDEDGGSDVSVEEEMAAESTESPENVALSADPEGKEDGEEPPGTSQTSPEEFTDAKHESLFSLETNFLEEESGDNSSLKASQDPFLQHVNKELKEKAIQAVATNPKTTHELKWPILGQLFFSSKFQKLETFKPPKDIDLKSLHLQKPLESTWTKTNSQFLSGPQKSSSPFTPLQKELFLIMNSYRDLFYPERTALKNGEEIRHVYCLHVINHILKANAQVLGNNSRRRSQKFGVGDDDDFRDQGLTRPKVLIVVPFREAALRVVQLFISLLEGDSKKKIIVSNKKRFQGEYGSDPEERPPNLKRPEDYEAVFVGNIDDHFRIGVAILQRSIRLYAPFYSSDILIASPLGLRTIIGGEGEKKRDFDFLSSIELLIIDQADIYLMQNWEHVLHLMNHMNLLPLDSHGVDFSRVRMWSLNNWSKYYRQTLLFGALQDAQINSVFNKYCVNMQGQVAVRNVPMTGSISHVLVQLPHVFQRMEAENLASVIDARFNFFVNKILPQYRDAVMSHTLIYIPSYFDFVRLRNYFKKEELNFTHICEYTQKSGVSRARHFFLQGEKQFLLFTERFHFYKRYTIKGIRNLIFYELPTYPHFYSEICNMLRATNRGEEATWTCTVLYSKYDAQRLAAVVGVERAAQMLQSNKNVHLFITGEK
Outline: as §1

**Q.** Which results are given for `Nc1ncnc2c1ncn2[C@@H]1O[C@H](COP(=O)(O)OP(=O)(O)OP(=O)(O)O)[C@@H](O)[C@H]1O` [adenosine triphosphate]?
**A.** NP40-soluble protein abundance ([1]; concentration: 1mM): 0.98 ± 0.025; NP40-soluble protein abundance ([1]; concentration: 2mM): 0.994 ± 0.033; NP40-soluble protein abundance ([1]; concentration: 4mM): 0.975 ± 0.055; NP40-soluble protein abundance ([1]; concentration: 6mM): 0.984 ± 0.038; NP40-soluble protein abundance ([1]; concentration: 8mM): 0.955 ± 0.042; NP40-soluble protein abundance ([1]; concentration: 10mM): 0.956 ± 0.043; NP40-soluble protein abundance ([2]; concentration: 1mM): 0.92 ± 0.059; NP40-soluble protein abundance ([2]; concentration: 2mM): 0.969 ± 0.083; NP40-soluble protein abundance ([2]; concentration: 4mM): 0.915 ± 0.022; NP40-soluble protein abundance ([2]; concentration: 6mM): 0.831 ± 0.13; NP40-soluble protein abundance ([2]; concentration: 8mM): 0.908 ± 0.021; NP40-soluble protein abundance ([2]; concentration: 10mM): 0.963 ± 0.024; NP40-soluble protein abundance ([3]; concentration: 1mM): 0.866 ± 0.036; NP40-soluble protein abundance ([3]; concentration: 2mM): 0.866 ± 0.04; NP40-soluble protein abundance ([3]; concentration: 4mM): 0.922 ± 0.046; NP40-soluble protein abundance ([3]; concentration: 6mM): 0.998 ± 0.11; NP40-soluble protein abundance ([3]; concentration: 8mM): 0.976 ± 0.057; NP40-soluble protein abundance ([3]; concentration: 10mM): 0.993 ± 0.034; NP40-soluble protein abundance ([4]; concentration: 1mM): 1.05 ± 0.086; NP40-soluble protein abundance ([4]; concentration: 2mM): 1.05 ± 0.064; NP40-soluble protein abundance ([4]; concentration: 4mM): 1.08 ± 0.045; NP40-soluble protein abundance ([4]; concentration: 6mM): 1.05 ± 0.086; NP40-soluble protein abundance ([4]; concentration: 8mM): 1.08 ± 0.063; NP40-soluble protein abundance ([4]; concentration: 10mM): 1.08 ± 0.06
